Data reported in publication PMC6735364.
Results are given in words; binding and its absence hold for the method and conditions named. Binding seen in cells or lysates may run through a third protein. Some binding calls cover weakened binding; strength is not graded here.

Protein sequences, listed by entry. Tags and fused reporters are not part of them.
UniProt Q00987: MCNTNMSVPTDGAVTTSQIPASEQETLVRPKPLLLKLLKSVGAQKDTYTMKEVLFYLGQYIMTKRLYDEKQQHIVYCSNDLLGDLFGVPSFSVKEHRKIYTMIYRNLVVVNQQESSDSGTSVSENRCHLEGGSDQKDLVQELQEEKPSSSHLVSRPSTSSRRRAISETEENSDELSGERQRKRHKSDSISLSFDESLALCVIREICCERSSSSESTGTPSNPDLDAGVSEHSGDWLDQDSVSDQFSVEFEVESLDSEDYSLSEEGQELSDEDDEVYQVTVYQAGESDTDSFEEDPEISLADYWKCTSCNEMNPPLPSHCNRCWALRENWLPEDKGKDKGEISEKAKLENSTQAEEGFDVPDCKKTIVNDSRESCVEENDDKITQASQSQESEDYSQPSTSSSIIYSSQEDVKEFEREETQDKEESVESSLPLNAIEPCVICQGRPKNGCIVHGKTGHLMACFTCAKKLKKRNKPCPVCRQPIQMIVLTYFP

Target: T1, MDM2 binding protein (MTBP) (human (endogenous in GF-1712 and U87)) (UniProt Q96DY7)
T1 sequence: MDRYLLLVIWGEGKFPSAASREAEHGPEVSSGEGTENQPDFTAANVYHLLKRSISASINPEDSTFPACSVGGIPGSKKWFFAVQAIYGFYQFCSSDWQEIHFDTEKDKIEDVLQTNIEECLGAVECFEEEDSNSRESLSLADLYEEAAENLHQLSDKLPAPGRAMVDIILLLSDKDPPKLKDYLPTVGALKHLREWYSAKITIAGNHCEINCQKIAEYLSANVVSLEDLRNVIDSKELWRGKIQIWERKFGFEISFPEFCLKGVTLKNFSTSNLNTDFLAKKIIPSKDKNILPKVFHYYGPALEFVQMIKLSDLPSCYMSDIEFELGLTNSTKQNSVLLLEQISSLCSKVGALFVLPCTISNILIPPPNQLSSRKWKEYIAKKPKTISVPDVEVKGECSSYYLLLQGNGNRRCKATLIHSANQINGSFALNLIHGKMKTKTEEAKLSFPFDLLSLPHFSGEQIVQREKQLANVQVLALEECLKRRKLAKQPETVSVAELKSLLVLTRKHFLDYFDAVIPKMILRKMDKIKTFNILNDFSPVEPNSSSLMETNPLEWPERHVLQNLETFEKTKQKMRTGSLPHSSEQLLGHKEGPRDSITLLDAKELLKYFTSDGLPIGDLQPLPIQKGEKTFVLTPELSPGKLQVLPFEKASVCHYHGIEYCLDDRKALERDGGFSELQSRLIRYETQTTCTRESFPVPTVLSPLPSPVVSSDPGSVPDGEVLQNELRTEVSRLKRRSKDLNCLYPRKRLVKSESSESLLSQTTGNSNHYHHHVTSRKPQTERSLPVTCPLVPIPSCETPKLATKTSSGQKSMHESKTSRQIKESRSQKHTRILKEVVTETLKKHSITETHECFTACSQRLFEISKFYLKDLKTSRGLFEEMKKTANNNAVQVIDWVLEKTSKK
Assay: co-IP; GF-1712 and U87 cells in RIPA lysis buffer; incubation with anti-MTBP or anti-MDM2 overnight at 4°C, protein-A/G PLUS-Agarose beads, western blot; anti-IgG as negative control

Row | binding | Substance
1 | binds | mouse double minute 2 (MDM2) protein (from UniProt Q00987 1-491)
2 | no binding | p53 (from UniProt P04637 1-393)
